From PMC7072837
Results are given in words; binding and its absence hold for the method and conditions named. Binding seen in cells or lysates may run through a third protein. Some entries that bind do so weakly or less than the wild type.

Amino acid sequences for entries named in this document (tags omitted). Residues count along the entry.
UniProt P27708: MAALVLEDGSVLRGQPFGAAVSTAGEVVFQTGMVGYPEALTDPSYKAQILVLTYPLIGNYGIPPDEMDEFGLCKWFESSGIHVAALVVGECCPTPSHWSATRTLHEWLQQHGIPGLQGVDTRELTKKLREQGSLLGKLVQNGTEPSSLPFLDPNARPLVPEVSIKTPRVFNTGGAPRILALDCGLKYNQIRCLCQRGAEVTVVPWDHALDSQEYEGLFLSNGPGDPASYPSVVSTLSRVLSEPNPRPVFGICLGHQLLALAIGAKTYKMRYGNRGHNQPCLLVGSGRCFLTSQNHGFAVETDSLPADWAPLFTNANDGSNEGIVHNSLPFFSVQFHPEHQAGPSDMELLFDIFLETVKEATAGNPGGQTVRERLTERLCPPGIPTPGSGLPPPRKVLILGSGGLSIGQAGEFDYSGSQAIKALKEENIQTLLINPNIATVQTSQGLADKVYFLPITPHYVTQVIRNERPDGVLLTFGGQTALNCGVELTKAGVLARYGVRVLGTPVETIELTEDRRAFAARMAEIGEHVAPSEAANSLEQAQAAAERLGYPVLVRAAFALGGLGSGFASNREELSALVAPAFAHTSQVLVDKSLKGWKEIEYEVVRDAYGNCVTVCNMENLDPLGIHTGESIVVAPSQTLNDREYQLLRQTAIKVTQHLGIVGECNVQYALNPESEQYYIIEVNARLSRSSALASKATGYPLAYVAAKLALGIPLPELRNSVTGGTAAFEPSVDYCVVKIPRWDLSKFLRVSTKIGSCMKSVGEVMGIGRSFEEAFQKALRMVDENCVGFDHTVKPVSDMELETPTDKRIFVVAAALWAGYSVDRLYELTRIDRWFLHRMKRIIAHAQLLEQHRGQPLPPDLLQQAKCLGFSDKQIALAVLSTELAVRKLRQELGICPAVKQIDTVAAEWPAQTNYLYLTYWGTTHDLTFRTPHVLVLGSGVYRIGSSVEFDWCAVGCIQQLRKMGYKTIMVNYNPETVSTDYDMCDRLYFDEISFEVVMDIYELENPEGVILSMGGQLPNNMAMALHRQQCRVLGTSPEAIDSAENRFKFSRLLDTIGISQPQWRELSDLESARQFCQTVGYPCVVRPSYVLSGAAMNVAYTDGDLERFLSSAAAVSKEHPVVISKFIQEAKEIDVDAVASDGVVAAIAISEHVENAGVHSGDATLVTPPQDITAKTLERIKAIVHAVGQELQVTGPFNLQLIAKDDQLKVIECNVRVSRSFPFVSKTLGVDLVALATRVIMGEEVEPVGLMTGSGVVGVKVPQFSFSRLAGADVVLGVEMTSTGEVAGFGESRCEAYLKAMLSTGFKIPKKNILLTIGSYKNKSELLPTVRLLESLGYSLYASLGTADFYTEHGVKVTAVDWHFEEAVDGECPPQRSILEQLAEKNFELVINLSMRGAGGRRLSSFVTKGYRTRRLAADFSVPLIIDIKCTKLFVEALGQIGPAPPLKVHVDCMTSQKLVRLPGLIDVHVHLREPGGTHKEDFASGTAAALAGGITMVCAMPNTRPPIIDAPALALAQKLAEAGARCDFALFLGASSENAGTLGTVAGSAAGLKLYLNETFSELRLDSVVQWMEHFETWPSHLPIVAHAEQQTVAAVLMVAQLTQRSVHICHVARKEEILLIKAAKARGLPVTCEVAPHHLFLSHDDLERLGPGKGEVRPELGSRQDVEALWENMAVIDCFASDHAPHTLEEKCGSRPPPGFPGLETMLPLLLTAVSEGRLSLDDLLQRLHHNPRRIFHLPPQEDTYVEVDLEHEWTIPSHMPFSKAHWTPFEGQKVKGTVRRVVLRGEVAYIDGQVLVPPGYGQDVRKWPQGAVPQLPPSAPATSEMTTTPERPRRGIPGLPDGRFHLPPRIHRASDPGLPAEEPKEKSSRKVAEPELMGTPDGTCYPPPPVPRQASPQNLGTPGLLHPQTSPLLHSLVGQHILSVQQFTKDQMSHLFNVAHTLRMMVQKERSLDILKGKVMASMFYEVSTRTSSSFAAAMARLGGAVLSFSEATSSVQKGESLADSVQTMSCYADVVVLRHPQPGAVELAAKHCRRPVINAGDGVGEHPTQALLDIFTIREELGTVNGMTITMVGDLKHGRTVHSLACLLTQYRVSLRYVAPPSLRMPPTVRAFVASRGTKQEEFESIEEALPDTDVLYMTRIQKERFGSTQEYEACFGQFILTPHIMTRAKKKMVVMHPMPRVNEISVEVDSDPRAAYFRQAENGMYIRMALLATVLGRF
UniProt Q66478, residues 566-862: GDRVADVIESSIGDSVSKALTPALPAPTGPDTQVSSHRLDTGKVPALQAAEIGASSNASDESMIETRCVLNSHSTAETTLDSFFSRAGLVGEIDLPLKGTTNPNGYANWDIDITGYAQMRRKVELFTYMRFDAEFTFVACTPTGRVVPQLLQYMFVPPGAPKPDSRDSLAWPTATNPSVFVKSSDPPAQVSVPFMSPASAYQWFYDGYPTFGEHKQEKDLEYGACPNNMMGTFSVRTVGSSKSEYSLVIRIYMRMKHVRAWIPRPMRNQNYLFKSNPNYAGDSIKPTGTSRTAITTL

Target: N-FLAG-tagged CAD (carbamoyl-phosphate synthetase 2, aspartate transcarbamylase, and dihydroorotase) (UniProt P27708)
Test: co-IP; Vero cells transfected with N-FLAG-CAD for 48 h, then infected with EV71 at MOI 1.25 for 24 h; immunoprecipitation with anti-FLAG, blot with anti-VP1

native VP1 protein of EV71 (from infection) (from UniProt Q66478 566-862)
binding: binds
